Values are relative to the signal before dosing, not to a vehicle control; the signal also falls without drug.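 Fibroblast labels denote human fibroblasts, mainly primary ones from uterus (C12385, HUF), lung (H6013), bone (Hs27A), adrenal (HADF) and skin (WS1), plus mammary HMF and breast cancer-associated Hs343T. Cancer cells are basal-like or mesenchymal-like triple-negative breast cancer lines. A hit is a response shift exceeding 3x replicate standard deviation. The tissue of the other fibroblasts is not given here.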
Tested on: BT20
Test: relative JC-1 red fluorescence (viability) vs pre-drug, coculture with fibroblast (fraction); higher = more viable cancer cells
Procedure: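 JC-1 labelled TNBC cells cocultured 1:1 (1,500 cells each) with CellTrace Violet stained primary or stromal fibroblasts in 384-well plates in FluoroBrite medium, treated with one of 42 anticancer drugs at 0.1, 1, 10 or 100 uM. JC-1 red fluorescence (mitochondrial integrity in cancer cells only) was read by plate reader every 8 h for 72 h. Values are normalised to each well's pre-drug value. The stock of one drug was tenfold lower, so its dose labels may be too high.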

O=NN(CCCl)C(=O)NC1CCCCC1 [Lomustine]
relative JC-1 red fluorescence
Conditions | 8 h | 16 h | 24 h | 32 h | 40 h | 48 h | 56 h | 64 h | 72 h
10 µM, coculture fibroblast: C12385 | 0.895 | 0.888 | 0.885 | 0.822 | 0.763 | 0.741 | 0.717 | 0.692 | 0.683
10 µM, coculture fibroblast: H6013 | 0.947 | 0.9448 | 0.964 | 0.935 | 0.9315 | 0.9303 | 0.965 | 0.955 | 0.96
10 µM, coculture fibroblast: H6019 | 0.867 | 0.801 | 0.81 | 0.7508 | 0.7113 | 0.709 | 0.684 | 0.667 | 0.655
10 µM, coculture fibroblast: H6076 | 0.877 | 0.938 | 0.89 | 0.8651 | 0.8565 | 0.836 | 0.834 | 0.833 | 0.821
10 µM, coculture fibroblast: H6231 | 0.814 | 0.9439 | 0.877 | 0.819 | 0.781 | 0.745 | 0.707 | 0.679 | 0.647
10 µM, coculture fibroblast: HADF | 0.9473 | 0.895 | 0.857 | 0.822 | 0.798 | 0.758 | 0.746 | 0.737 | 0.707
10 µM, coculture fibroblast: HCFa | 0.922 | 0.885 | 0.863 | 0.805 | 0.767 | 0.727 | 0.697 | 0.663 | 0.629
10 µM, coculture fibroblast: HCPF | 0.973 | 0.888 | 0.838 | 0.801 | 0.768 | 0.74 | 0.719 | 0.717 | 0.687
10 µM, coculture fibroblast: HHSteC | 0.951 | 0.863 | 0.932 | 0.843 | 0.806 | 0.889 | 0.795 | 0.8155 | 0.749
10 µM, coculture fibroblast: HMF | 0.984 | 0.908 | 0.835 | 0.786 | 0.732 | 0.7 | 0.682 | 0.66 | 0.63
10 µM, coculture fibroblast: HPFa | 0.946 | 0.926 | 0.941 | 0.863 | 0.848 | 0.805 | 0.779 | 0.743 | 0.686
10 µM, coculture fibroblast: HUF | 0.896 | 0.839 | 0.837 | 0.775 | 0.728 | 0.703 | 0.69 | 0.683 | 0.672
10 µM, coculture fibroblast: Hs5 | 0.893 | 0.9177 | 0.848 | 0.819 | 0.786 | 0.747 | 0.7252 | 0.688 | 0.677
10 µM, coculture fibroblast: Hs27A | 0.878 | 0.853 | 0.805 | 0.858 | 0.834 | 0.847 | 0.76 | 0.813 | 0.744
10 µM, coculture fibroblast: Hs343T | 0.885 | 0.9011 | 0.8219 | 0.776 | 0.729 | 0.687 | 0.646 | 0.621 | 0.591
10 µM, coculture fibroblast: WS1 | 0.8595 | 0.803 | 0.797 | 0.747 | 0.696 | 0.68 | 0.653 | 0.638 | 0.621
100 µM, coculture fibroblast: C12385 | 0.877 | 0.851 | 0.857 | 0.805 | 0.752 | 0.727 | 0.708 | 0.695 | 0.66
100 µM, coculture fibroblast: H6013 | 0.909 | 0.873 | 0.9 | 0.869 | 0.859 | 0.84 | 0.847 | 0.836 | 0.827
100 µM, coculture fibroblast: H6019 | 0.843 | 0.797 | 0.7824 | 0.729 | 0.6792 | 0.671 | 0.641 | 0.613 | 0.602
100 µM, coculture fibroblast: H6076 | 0.9569 | 0.86 | 0.809 | 0.789 | 0.786 | 0.776 | 0.777 | 0.788 | 0.786
100 µM, coculture fibroblast: H6231 | 0.889 | 0.913 | 0.82 | 0.758 | 0.705 | 0.655 | 0.604 | 0.587 | 0.553
100 µM, coculture fibroblast: HADF | 0.946 | 0.9568 | 0.86 | 0.952 | 0.855 | 0.799 | 0.819 | 0.82 | 0.746
100 µM, coculture fibroblast: HCFa | 0.925 | 0.92 | 0.907 | 0.878 | 0.858 | 0.837 | 0.827 | 0.809 | 0.778
100 µM, coculture fibroblast: HCPF | 0.915 | 0.8895 | 0.8365 | 0.8041 | 0.767 | 0.723 | 0.689 | 0.678 | 0.633
100 µM, coculture fibroblast: HHSteC | 0.905 | 0.871 | 0.865 | 0.803 | 0.755 | 0.723 | 0.696 | 0.667 | 0.635
100 µM, coculture fibroblast: HMF | 0.917 | 0.763 | 0.697 | 0.659 | 0.631 | 0.602 | 0.581 | 0.561 | 0.536
100 µM, coculture fibroblast: HPFa | 0.937 | 0.8402 | 0.875 | 0.73 | 0.814 | 0.742 | 0.712 | 0.734 | 0.798
100 µM, coculture fibroblast: HUF | 0.905 | 0.851 | 0.833 | 0.751 | 0.711 | 0.67 | 0.65 | 0.631 | 0.614
100 µM, coculture fibroblast: Hs5 | 0.888 | 0.916 | 0.869 | 0.837 | 0.814 | 0.787 | 0.761 | 0.751 | 0.7403
100 µM, coculture fibroblast: Hs27A | 0.877 | 0.778 | 0.951 | 0.9814 | 0.9562 | 0.9498 | 0.92404 | 0.9019 | 0.8552
100 µM, coculture fibroblast: Hs343T | 0.977 | 0.838 | 0.741 | 0.686 | 0.657 | 0.616 | 0.582 | 0.56 | 0.527
100 µM, coculture fibroblast: WS1 | 0.823 | 0.761 | 0.748 | 0.699 | 0.648 | 0.614 | 0.595 | 0.5757 | 0.5582

From the supplement of paper PMC6078165
